PubChem BioAssay AID1224830 – NIAID, 2016
Aim: 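Host factors that control LPS-induced TNF expression in human macrophages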 (primary screen). System: human THP-1 monocytic leukaemia cells, TNF dual-luciferase reporter clone, PMA-differentiated to macrophage-like cells. Knock-down reagent: siRNA pool against human genes, 50 nM. Timing: LPS for 4 h, given about 3 days after siRNA transfection. Challenge: bacterial LPS (TLR4 ligand), 10 ng/ml. Measurement: 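TNF firefly reporter luminescence divided by renilla, normalised to the plate median, then turned into a robust z-score for each replicate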. Scale: TNF reporter robust z-score: higher = stronger TNF reporter response to LPS. Active means: 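Each well counts as active if its z-score is over 2.8 or under -1.5; controls are left without a call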.
This is one part, drawn at random, of about 18,000 deposited reagents. About 2,900 of them (16%) were called active. 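Calls are made per well; low scores hint the gene aids the LPS response, high scores that it dampens it.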 Repeated entries: four replicate wells of each siRNA pool.

| gene | TNF reporter robust z-score | Outcome |
| --- | --- | --- |
| COL1A1 | -1.19 | inactive |
| COL1A1 | -0.93 | inactive |
| COL1A1 | 0.08 | inactive |
| COL1A1 | -0.26 | inactive |
| NLGN1 | -0.96 | inactive |
| NLGN1 | -1.86 | active |
| NLGN1 | -0.25 | inactive |
| NLGN1 | -1.33 | inactive |
| TNFRSF17 | -0.82 | inactive |
| TNFRSF17 | -1.08 | inactive |
| TNFRSF17 | -0.55 | inactive |
| TNFRSF17 | -1.55 | active |
| ARVCF | 0.61 | inactive |
| ARVCF | -1.65 | active |
| ARVCF | -0.41 | inactive |
| ARVCF | 0.44 | inactive |
| MRGPRX3 | 0.67 | inactive |
| MRGPRX3 | 0.5 | inactive |
| MRGPRX3 | 0.69 | inactive |
| MRGPRX3 | 0.7 | inactive |
| MAN2A1 | -1.06 | inactive |
| MAN2A1 | -1.29 | inactive |
| MAN2A1 | -1.31 | inactive |
| MAN2A1 | -1.4 | inactive |
| BMERB1 | -1.36 | inactive |
| BMERB1 | -0.55 | inactive |
| BMERB1 | -1.02 | inactive |
| BMERB1 | -0.16 | inactive |
| NEIL1 | 0.26 | inactive |
| NEIL1 | 1.24 | inactive |
| NEIL1 | 1.08 | inactive |
| NEIL1 | 0.99 | inactive |
| ETV3 | 0.88 | inactive |
| ETV3 | 1.48 | inactive |
| ETV3 | 1.1 | inactive |
| ETV3 | 0.85 | inactive |

5 of these entries, reformatted:
gene | TNF reporter robust z-score | Outcome
TNFRSF17 | -1.08 | inactive
TNFRSF17 | -0.55 | inactive
TNFRSF17 | -1.55 | active
ARVCF | 0.61 | inactive
ARVCF | -1.65 | active

Further entries follow.
| gene | TNF reporter robust z-score | Outcome |
| --- | --- | --- |
| RAD54L2 | 0.15 | inactive |
| RAD54L2 | 0.88 | inactive |
| RAD54L2 | -0.12 | inactive |
| RAD54L2 | 0 | inactive |
| COL4A1 | 1.17 | inactive |
| COL4A1 | 1.1 | inactive |
| COL4A1 | 0.58 | inactive |
| COL4A1 | -0.39 | inactive |
| RNH1 | -0.59 | inactive |
| RNH1 | -0.64 | inactive |
| RNH1 | -0.71 | inactive |
| RNH1 | -0.13 | inactive |
| MRGPRG | -0.79 | inactive |
| MRGPRG | -0.81 | inactive |
| MRGPRG | -0.77 | inactive |
| MRGPRG | -0.88 | inactive |
| HS3ST1 | -0.62 | inactive |
| HS3ST1 | 0.61 | inactive |
| HS3ST1 | -0.7 | inactive |
| HS3ST1 | -0.35 | inactive |
| DLL1 | 0.09 | inactive |
| DLL1 | -0.65 | inactive |
| DLL1 | -0.91 | inactive |
| DLL1 | -0.47 | inactive |
| SULT2B1 | -0.23 | inactive |
| SULT2B1 | -0.46 | inactive |
| SULT2B1 | -0.13 | inactive |
| SULT2B1 | 0.82 | inactive |
| USP26 | -0.39 | inactive |
| USP26 | -0.61 | inactive |
| USP26 | 0.95 | inactive |
| USP26 | 2 | inactive |
| VILL | -1.15 | inactive |
| VILL | -0.52 | inactive |
| VILL | -0.63 | inactive |
| VILL | 0.56 | inactive |
| ATP6V1G3 | -0.33 | inactive |
| ATP6V1G3 | -0.83 | inactive |
| ATP6V1G3 | 0.47 | inactive |
| ATP6V1G3 | -0.5 | inactive |
